## Screening data, single-dose tests

Protein sequences, listed by entry. Tags and fused reporters are not part of them. Residues count along the entry.
UniProt P9WFT3, whole entry: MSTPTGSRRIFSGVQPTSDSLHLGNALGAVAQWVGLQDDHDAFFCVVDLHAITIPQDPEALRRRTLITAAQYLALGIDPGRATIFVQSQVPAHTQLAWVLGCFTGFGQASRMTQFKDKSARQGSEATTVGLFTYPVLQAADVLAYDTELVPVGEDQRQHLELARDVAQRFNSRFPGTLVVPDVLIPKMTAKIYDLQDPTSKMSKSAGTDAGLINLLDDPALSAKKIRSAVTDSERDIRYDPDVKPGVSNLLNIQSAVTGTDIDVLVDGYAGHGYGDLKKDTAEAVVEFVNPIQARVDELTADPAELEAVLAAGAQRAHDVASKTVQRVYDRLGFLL
UniProt Q4DA54, 1-478: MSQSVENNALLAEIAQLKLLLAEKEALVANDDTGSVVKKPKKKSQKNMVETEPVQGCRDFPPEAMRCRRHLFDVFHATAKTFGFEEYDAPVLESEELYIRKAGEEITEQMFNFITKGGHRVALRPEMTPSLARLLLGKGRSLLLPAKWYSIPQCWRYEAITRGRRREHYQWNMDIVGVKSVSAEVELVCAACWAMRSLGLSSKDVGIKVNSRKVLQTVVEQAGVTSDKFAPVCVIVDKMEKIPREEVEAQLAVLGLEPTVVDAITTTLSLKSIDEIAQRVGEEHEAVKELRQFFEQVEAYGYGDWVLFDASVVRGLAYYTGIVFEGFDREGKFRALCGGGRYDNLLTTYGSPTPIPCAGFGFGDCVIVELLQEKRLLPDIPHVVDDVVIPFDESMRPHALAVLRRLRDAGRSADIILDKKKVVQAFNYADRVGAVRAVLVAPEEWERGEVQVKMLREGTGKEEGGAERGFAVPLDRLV
UniProt Q8IDJ8, 1-583: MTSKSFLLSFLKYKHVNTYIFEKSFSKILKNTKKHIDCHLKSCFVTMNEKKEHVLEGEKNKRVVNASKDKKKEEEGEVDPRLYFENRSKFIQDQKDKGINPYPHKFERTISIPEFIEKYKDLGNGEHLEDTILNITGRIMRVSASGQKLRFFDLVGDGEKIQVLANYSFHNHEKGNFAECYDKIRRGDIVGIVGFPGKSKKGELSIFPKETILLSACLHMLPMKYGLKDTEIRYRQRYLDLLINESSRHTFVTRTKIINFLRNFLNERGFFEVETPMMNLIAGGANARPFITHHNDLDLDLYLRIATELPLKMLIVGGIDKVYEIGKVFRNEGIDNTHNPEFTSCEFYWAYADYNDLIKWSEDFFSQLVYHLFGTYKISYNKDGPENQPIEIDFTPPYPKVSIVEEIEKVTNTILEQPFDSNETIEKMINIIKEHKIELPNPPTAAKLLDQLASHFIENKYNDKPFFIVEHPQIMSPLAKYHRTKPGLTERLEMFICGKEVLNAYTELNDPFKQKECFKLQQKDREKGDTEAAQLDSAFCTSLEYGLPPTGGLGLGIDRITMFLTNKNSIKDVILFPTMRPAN
UniProt P9WNZ1, whole entry: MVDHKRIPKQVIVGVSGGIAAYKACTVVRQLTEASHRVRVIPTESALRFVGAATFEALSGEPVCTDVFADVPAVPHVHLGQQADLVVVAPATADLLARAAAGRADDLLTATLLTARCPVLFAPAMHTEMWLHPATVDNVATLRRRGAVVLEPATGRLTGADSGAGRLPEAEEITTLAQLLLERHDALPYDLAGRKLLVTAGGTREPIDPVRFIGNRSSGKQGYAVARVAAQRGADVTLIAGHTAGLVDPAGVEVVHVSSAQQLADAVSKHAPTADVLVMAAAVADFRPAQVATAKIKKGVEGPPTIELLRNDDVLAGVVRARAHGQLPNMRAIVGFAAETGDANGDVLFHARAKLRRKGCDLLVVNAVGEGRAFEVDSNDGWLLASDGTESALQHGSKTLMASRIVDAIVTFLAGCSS
UniProt I6X8D2, whole entry: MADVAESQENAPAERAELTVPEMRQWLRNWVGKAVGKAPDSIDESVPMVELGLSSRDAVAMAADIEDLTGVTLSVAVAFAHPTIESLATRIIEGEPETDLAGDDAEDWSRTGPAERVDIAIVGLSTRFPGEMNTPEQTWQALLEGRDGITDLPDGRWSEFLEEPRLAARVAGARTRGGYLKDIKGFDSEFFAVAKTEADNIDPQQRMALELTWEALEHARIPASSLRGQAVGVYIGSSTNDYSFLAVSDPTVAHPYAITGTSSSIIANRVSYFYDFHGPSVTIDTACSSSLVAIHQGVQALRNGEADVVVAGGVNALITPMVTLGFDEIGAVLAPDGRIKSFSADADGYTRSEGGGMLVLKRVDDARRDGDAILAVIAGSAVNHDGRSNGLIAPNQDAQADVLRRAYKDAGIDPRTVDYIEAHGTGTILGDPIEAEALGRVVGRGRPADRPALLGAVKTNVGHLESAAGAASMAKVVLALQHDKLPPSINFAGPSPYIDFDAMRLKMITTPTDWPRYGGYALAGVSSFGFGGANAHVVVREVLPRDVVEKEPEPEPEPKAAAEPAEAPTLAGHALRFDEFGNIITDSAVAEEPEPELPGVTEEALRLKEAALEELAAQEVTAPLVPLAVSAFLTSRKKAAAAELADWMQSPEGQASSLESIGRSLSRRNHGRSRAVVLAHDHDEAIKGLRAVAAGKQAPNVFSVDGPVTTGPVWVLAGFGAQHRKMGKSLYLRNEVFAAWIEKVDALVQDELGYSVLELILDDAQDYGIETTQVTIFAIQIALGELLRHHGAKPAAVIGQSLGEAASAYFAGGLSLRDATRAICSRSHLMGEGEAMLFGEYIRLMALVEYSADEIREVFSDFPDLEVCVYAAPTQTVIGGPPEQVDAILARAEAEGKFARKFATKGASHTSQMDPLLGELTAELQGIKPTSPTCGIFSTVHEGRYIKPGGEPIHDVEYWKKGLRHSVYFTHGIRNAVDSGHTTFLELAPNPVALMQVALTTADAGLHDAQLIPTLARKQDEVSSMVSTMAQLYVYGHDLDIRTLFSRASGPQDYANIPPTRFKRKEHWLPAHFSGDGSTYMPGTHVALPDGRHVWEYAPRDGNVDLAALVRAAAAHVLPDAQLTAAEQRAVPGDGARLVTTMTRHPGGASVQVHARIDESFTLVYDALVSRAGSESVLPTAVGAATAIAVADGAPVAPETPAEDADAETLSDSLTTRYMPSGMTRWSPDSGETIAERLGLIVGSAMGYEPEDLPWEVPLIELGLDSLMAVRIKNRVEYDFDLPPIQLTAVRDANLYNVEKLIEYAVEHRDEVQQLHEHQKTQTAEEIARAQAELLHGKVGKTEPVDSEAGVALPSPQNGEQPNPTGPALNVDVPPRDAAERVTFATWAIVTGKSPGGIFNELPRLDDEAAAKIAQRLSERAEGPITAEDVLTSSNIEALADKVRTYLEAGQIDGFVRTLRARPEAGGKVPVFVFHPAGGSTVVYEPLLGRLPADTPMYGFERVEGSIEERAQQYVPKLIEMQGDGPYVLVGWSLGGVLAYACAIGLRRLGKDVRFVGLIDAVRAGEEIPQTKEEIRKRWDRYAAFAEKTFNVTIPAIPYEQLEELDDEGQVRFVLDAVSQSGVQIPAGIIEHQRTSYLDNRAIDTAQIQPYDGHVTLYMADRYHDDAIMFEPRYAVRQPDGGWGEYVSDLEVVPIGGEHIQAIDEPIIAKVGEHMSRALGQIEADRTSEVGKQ

A: 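Tryptophan-tRNA ligase, Mycobacterium tuberculosis (UniProt P9WFT3). Enzyme assay of tryptophanyl-tRNA synthetase; the read-out is not stated. Compounds at 10 µM. Direction is not recorded; retested compounds ran higher, which suggests that high means inhibition. Size under these conditions: about 65,000 compounds, about 64 of them at 50% or above in at least one test.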
B: 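Histidine-tRNA ligase, Trypanosoma cruzi CL Brener (UniProt Q4DA54). Enzyme assay of histidyl-tRNA synthetase; the read-out is not stated. Concentration: 30 µM. Higher reads as stronger inhibition (inferred: compounds with an IC50 in retests scored well above the rest). Of about 69,000 compounds tested this way, about 31 (0.045%) reached 50% or more in at least one test.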
C: 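Enzyme assay of the cytosolic lysyl-tRNA synthetase in 384-well plates, read by luminescence. Target: Lysine-tRNA ligase, Plasmodium falciparum 3D7 (UniProt Q8IDJ8). Compounds at 30 µM. Direction is inferred from only a few compounds that gave an IC50; most scored high, so higher reads as stronger inhibition. Of about 69,000 compounds tested this way, about 49 (0.071%) reached 50% or more in at least one test.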
D: 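Coenzyme A biosynthesis protein CoaBC, Mycobacterium tuberculosis (UniProt P9WNZ1). Enzyme assay of CoaBC with a phosphate dye (Biomol Green) read at 650 nm. Tested at 30 µM. Direction is inferred from only a few compounds that gave an IC50; most scored high, so higher reads as stronger inhibition. Most strong results did not repeat in a second test. Size under these conditions: about 67,000 compounds, about 40 of them at 50% or above in at least one test.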
E: 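Enzyme assay of the thioesterase domain of polyketide synthase 13; the read-out is not stated. Target: Polyketide synthase Pks13, Mycobacterium tuberculosis (UniProt I6X8D2). Concentration: 30 µM. The record gives no direction; the compounds picked for IC50 retests had high values, so higher reads as stronger inhibition. About 67,000 compounds were tested under these conditions; 0.46% (about 300) showed 50% or more at least once.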
F: 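Cell assay of Leishmania donovani living inside macrophages; the read-out is not stated. Compounds at 30 µM. Higher reads as stronger inhibition (inferred: compounds with an IC50 in retests scored well above the rest). Of about 69,000 compounds tested this way, about 1,000 (1.5%) reached 50% or more in at least one test.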

Results are given as percent effect.
The controls that fix the scale are not given in the record; negative values are as filed.
This is an unselected part of the compounds tested.
Two or more numbers in one place are separate tests of the same structure; such repeats can differ widely.

- O=C(NCc1nc(C2CCCCC2)no1)C1CC(=O)N(C2CCCC2)C1 (configuration not stated) : A: -3.465%; B: 5.051%; C: 2.31%; D: 0.2558%; E: 5.816%; F: -17.17%
- CNC(=O)c1sccc1N(C)S(=O)(=O)c1ccc(Cl)cc1 : A: 2.441%; B: -7.453%; C: 3.989%; D: 3.671%; E: 25.13%; F: 77.15%
- Cc1nnc(NCc2ccc(Cl)cc2)o1 : A: 0.1833%; B: -0.9804%; C: 4.625%; D: 2.764%; E: -26.63%; F: 14.14%
- O=C(CCn1ccc2ccc(Br)cc21)NCc1ccc(C(=O)O)cc1 : A: 3.34%; B: 6.098%; C: 4.951%; D: 1.013%; E: 7.051%; F: 13.4% & 36.15%
- CC(C)Cc1noc(CN(C)C(=O)CCNC(=O)c2ccccc2F)n1 : A: -2.006%; B: 13.25%; C: 6.811%; D: 5.941%; E: -29.57%; F: 23.81%
- CC(C)CN1C[C@H]2C[C@H](C(=O)N3CCCC3)[C@@H](C1)O2 : B: 4.444%; C: 3.913%; D: 2.683%; E: -3.466%
- CO[C@H]1C[C@@H](O)C12CCN(C(=O)CCSCc1ccc(F)cc1)CC2 : A: -3.618%; B: -7.729%; C: 4.607%; D: 2.36%; E: -11.05%; F: -6.562%
- CCOC(=O)CCCNc1nc(C(C)(C)C)nc2c1cnn2C : A: 1.41%; B: 3.704%; C: 0.9897%; D: -0.7371%; E: 2.661%; F: 21.73%
- Nc1ncc(C(=O)N2CCC3(CCCO3)CC2)c(-c2ccccc2)n1 : A: -3.024%; B: 2.186%; C: 3.237%; D: 8.932%; E: -28.01%; F: 20.5%
- Cc1csc(N2CCN(C(=O)CCCNc3ncccn3)CC2)n1 : A: -5.65%; B: 6.105%; C: 0.5999%; D: -1.048%; E: 8.803%; F: -4.463%
- CCc1nc(C)c(C(=O)N2CCCN(Cc3cnn(C)c3)CC2)s1 : A: 0.895%; B: -3.361%; C: 3.868%; D: -5.4%; E: -24.96%; F: 14.52%
- CC(C)NC(=O)CCN1CCCC1c1cccc2c1OCCO2 (configuration not stated) : A: 6.3%; B: 13.33%; C: 6.93%; D: -8.264%; E: 6.148%; F: 5.115%
- Cc1ccccc1CNC(=O)Cn1nc(-c2ccc(F)cc2)oc1=O : A: -0.1883%; B: 4.734%; C: 0.6767%; D: 3.169%; E: -7.18%; F: 30.04%
- CCCc1n[nH]c(C2CN(C(=O)c3ccc4c(c3)COC4)CCO2)n1 (configuration not stated) : A: -2.128%; B: -5.78%; C: -0.493%; D: -1.66%; E: 2.382%; F: 18.91%
- Clc1snnc1CN1CCOC(CNc2cccnn2)C1 (configuration not stated) : A: -2.798%; B: 2.29%; C: -0.4521%; D: 4.578%; E: -0.9678%; F: 23.12%
- Cc1nn(C)cc1C(=O)N1CCCC(n2cncn2)C1 (configuration not stated) : A: -1.49%; B: 5.65%; C: 2.314%; D: 0.7833%; E: -11.63%; F: -1.088%
- CC(C)c1cc(C(=O)NCCc2nc3c(s2)CCC3)n(C)n1 : A: 4.516%; B: 10.1%; C: 3.966%; D: 6.734%; E: 5.546%; F: 30%
- CN(Cc1ccco1)[C@@H]1CN(Cc2ccccn2)C[C@@H]2CCCO[C@@H]21 : A: -0.8718%; B: 7.438%; C: 2.997%; D: 1.261%; E: 3.046%
- CCn1cc(CN2CCCn3nc(CNC(=O)C4CCC4)cc3C2)cn1 : A: -0.9114%; B: 2.51%; C: 1.838%; D: 0.9091%; E: -13.5%; F: 17.71%
- [H][C@]12C[C@H](NC(=O)c3ccn(C)n3)[C@@]1([H])CN(S(=O)(=O)c1ccc(C)cc1)C2 : F: -2.778%

The first 2 entries again:

SMILES,A,B,C,D,E,F
O=C(NCc1nc(C2CCCCC2)no1)C1CC(=O)N(C2CCCC2)C1 (configuration not stated),-3.465%,5.051%,2.31%,0.2558%,5.816%,-17.17%
CNC(=O)c1sccc1N(C)S(=O)(=O)c1ccc(Cl)cc1,2.441%,-7.453%,3.989%,3.671%,25.13%,77.15%

From ChEMBL document CHEMBL3988442, “University of Dundee, Small-Polar-MMV Screening Library” (2021).